Measurements: patent US20070276011A1, “Plasminogen Activator Inhibitor-1 Inhibitor” (priority 2003, published 2007)
Some results were stated once for a whole list of compounds, not compound by compound.

By UniProt entry, the sequences of proteins in these tests, tags left out. Residues count along the entry.
UniProt P05121, 24-402: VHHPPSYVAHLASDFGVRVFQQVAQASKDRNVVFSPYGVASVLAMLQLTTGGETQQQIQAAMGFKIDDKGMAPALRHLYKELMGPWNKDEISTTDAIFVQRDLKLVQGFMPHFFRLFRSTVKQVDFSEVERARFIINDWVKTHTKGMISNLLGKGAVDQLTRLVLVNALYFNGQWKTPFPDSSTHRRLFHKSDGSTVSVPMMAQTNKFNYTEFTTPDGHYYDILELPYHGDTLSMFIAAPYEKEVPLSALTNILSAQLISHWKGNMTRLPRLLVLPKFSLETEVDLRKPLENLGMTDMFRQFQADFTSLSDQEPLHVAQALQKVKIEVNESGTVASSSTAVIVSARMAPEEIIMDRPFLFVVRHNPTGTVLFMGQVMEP

Target: recombinant human PAI-1 (Homo sapiens, UniProt P05121)
Assay: Fibrin clot lysis assay
Format: biochemical
Conditions: concentration of 10 μM or 20 μM

O=C1C(=Cc2ccc(O)c(O)c2)SC(=S)N1Cc1ccc(Cl)c(Cl)c1 [compound 81, 5-(3,4-Dihydroxybenzylidene)-3-(3,4-dichlorobenzyl)rhodanine]
reduction of the fibrin lysis time: ≥ 50%

O=C(Nc1ccc(O)c(O)c1)c1cc(C=C2SC(=O)N(Cc3ccc(Cl)c(Cl)c3)C2=O)ccc1O [compound 352]
reduction of the fibrin lysis time: ≥ 50%

O=C1SC(=Cc2cc(O)c(O)c([N+](=O)[O-])c2)C(=O)N1Cc1ccc(Cl)c(Cl)c1 [compound 347]
reduction of the fibrin lysis time: ≥ 50%

O=C(Nc1cc(C(F)(F)F)ccc1Cl)c1cc(C=C2SC(=O)N(Cc3ccc(Cl)c(Cl)c3)C2=O)ccc1O [compound 423]
reduction of the fibrin lysis time: ≥ 50%

O=C1SC(=Cc2cc(O)c(O)c(O)c2)C(=O)N1Cc1ccc(Cl)c(Cl)c1 [compound 10, 5-(3,4,5-Trihydroxybenzylidene)-3-(3,4-dichlorobenzyl)thiazolidine-2,4-dione]
reduction of the fibrin lysis time: ≥ 50%

O=C(Nc1cccc(O)c1O)c1cc(C=C2SC(=O)N(Cc3ccc(Cl)c(Cl)c3)C2=O)ccc1O [compound 436]
reduction of the fibrin lysis time: ≥ 50%

CC(C)C1=NN(c2ccc(Cl)c(Cl)c2)C(=O)C1=Cc1cc(O)c(O)cc1O [compound 141, 4-(2,4,5-trihydroxybenzylidene)-1-(3,4-dichlorophenyl)-3-isopropyl-2-pyrazolin-5-one]
reduction of the fibrin lysis time: ≥ 50%

O=C1SC(=Cc2ccc(O)c(O)c2)C(=O)N1Cc1ccc(Cl)cc1Cl [compound 23, 5-(3,4-dihydroxybenzylidene)-3-(2,4-dichlorobenzyl)thiazolidine-2,4-dione]
reduction of the fibrin lysis time: ≥ 50%

O=C(Nc1cc(Cl)ccc1Cl)c1cc(C=C2SC(=O)N(Cc3ccc(Cl)c(Cl)c3)C2=O)ccc1O [compound 441]
reduction of the fibrin lysis time: ≥ 50%

O=C(Nc1cc([N+](=O)[O-])ccc1Cl)c1cc(C=C2SC(=O)N(Cc3ccc(Cl)c(Cl)c3)C2=O)ccc1O [compound 473]
reduction of the fibrin lysis time: ≥ 50%

CC(C)C1=NN(c2ccc(C(=O)O)cc2)C(=O)C1=Cc1ccc(C=Cc2ccccc2)cc1 [compound 536]
reduction of the fibrin lysis time: ≥ 50%

COc1cc(C=C2SC(=O)N(Cc3ccc(Cl)c(Cl)c3)C2=O)cc(C(=O)Nc2ccc(O)c(O)c2)c1O [compound 349, 5-[3-Methoxy-4-hydroxy-5-(3,4-dihydroxyphenylcarbamoyl)-benzylidene]-3-(3,4-dichlorobenzyl)thiazolidine-2,4-dione]
reduction of the fibrin lysis time: ≥ 50%
